Results deposited as PubChem BioAssay AID504784 (Drosophila RNAi Screening Center, 2011)
The screen tested about 17,000 reagents; shown is a random part of those with a known target gene and a result. 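Each column is one replicate's B-score; the combined score over replicates was not deposited, so single values may mislead.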 Names joined by + are all predicted targets of the reagent. Further read-outs or replicates are left out here.

Screen: 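Genome-wide knock-down for genes giving too much or too little stored lipid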 (primary screen)
Cells: Drosophila Kc167 embryonic cells
Reagents: long dsRNA against Drosophila genes, about 250 ng dsRNA per well
Duration: 4 days
Conditions: cells fed 400 µM oleic acid bound to BSA
Measurement: 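Microscope images give a droplet-to-nucleus area ratio, taken as log and converted to a screen-wide B-score; higher values mean greater lipid storage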
Scale: droplet/nuclear area B-score: higher = more stored lipid (overstorage)

How did the screen score atilla [DRSC02971]?
droplet/nuclear area B-score, replicate 1: -1.56

For CAH8 [DRSC15784], what was measured?
droplet/nuclear area B-score, replicate 1: -1.38

Which result is listed for CG15111 [DRSC21467]?
droplet/nuclear area B-score, replicate 1: -0.145

Which result is listed for CG12715 [DRSC19492]?
droplet/nuclear area B-score, replicate 1: -0.14

With CG42542 [DRSC15549], what does the deposit list?
droplet/nuclear area B-score, replicate 1: -0.438

How did the screen score CG42542 [DRSC22264]?
droplet/nuclear area B-score, replicate 1: 0.167

With Tpst [DRSC18989], how do the results read?
droplet/nuclear area B-score, replicate 1: -0.219

What did the screen give for Tpst [DRSC19696]?
droplet/nuclear area B-score, replicate 1: 0.00324

Which result is listed for Tpst [DRSC19723]?
droplet/nuclear area B-score, replicate 1: -1.3

For Tpst [DRSC19724], what was measured?
droplet/nuclear area B-score, replicate 1: 1.72

What did the screen give for Tpst [DRSC22621]?
droplet/nuclear area B-score, replicate 1: -6.72

With lama [DRSC11361], what does the deposit list?
droplet/nuclear area B-score, replicate 1: -0.924

For CG13375 [DRSC18621], how do the results read?
droplet/nuclear area B-score, replicate 1: 0.0362

For BBS1 [DRSC10196], how do the results read?
droplet/nuclear area B-score, replicate 1: 0.459

With LanB1 [DRSC03360], what does the deposit list?
droplet/nuclear area B-score, replicate 1: 1.46

With CG14634 [DRSC17944], what does the deposit list?
droplet/nuclear area B-score, replicate 1: -0.39

How did the screen score CG7556 [DRSC20052]?
droplet/nuclear area B-score, replicate 1: 2.13

What is on record for ppk22 [DRSC22093]?
droplet/nuclear area B-score, replicate 1: -0.621

How did the screen score CG9215 [DRSC20171]?
droplet/nuclear area B-score, replicate 1: 1.03

With NPFR [DRSC12173], what was measured?
droplet/nuclear area B-score, replicate 1: 0.642

With ref(2)P [DRSC03601], how do the results read?
droplet/nuclear area B-score, replicate 1: -0.254

For CG42326 [DRSC06483], how do the results read?
droplet/nuclear area B-score, replicate 1: -0.0337

For CG42326 [DRSC06484], how do the results read?
droplet/nuclear area B-score, replicate 1: -0.296

For AP-2sigma [DRSC15957], what was measured?
droplet/nuclear area B-score, replicate 1: -4.41

For Pen [DRSC03396], what was measured?
droplet/nuclear area B-score, replicate 1: 0.0158

With Cyp6t1 [DRSC20564], what was measured?
droplet/nuclear area B-score, replicate 1: 1.01

What did the screen give for CG4467 [DRSC15585]?
droplet/nuclear area B-score, replicate 1: 0.301

With TBC1d7 + mRpS24 [DRSC14611], what was measured?
droplet/nuclear area B-score, replicate 1: 1.2

With CG4074 [DRSC11752], how do the results read?
droplet/nuclear area B-score, replicate 1: 0.683

What is on record for CG8326 [DRSC20103]?
droplet/nuclear area B-score, replicate 1: 0.766

How did the screen score CG33307 [DRSC01349]?
droplet/nuclear area B-score, replicate 1: 0.814

For CG10874 [DRSC00297], what does the deposit list?
droplet/nuclear area B-score, replicate 1: 1.81

What did the screen give for EbpIII [DRSC04638]?
droplet/nuclear area B-score, replicate 1: 0.00809

What is on record for Skp2 [DRSC12329]?
droplet/nuclear area B-score, replicate 1: -0.454

For Edg84A [DRSC12594], what does the deposit list?
droplet/nuclear area B-score, replicate 1: -0.0457

Which result is listed for CG8952 [DRSC20133]?
droplet/nuclear area B-score, replicate 1: -0.0394

Which result is listed for Oct-TyrR [DRSC11883]?
droplet/nuclear area B-score, replicate 1: 1.92

Which result is listed for Pcd [DRSC16785]?
droplet/nuclear area B-score, replicate 1: 0.212

For CG17977 [DRSC06700], what does the deposit list?
droplet/nuclear area B-score, replicate 1: -0.491

With CCKLR-17D3 [DRSC20015], what does the deposit list?
droplet/nuclear area B-score, replicate 1: -1.55

Which result is listed for CCKLR-17D3 [DRSC20017]?
droplet/nuclear area B-score, replicate 1: 0.938

With CG1075 (retired record) [DRSC12144], what was measured?
droplet/nuclear area B-score, replicate 1: -1.43

Which result is listed for CG30034 (retired record) [DRSC05288]?
droplet/nuclear area B-score, replicate 1: 0.834

What is on record for Loxl2 [DRSC04469]?
droplet/nuclear area B-score, replicate 1: -0.00509

What did the screen give for CG44836 [DRSC09915]?
droplet/nuclear area B-score, replicate 1: -0.293

With CG30088 [DRSC21764], what does the deposit list?
droplet/nuclear area B-score, replicate 1: -0.184

What did the screen give for CG32588 [DRSC22285]?
droplet/nuclear area B-score, replicate 1: -0.0717

What is on record for tal-1A + tal-2A + tal-AA + 1 more [DRSC12992]?
droplet/nuclear area B-score, replicate 1: 0.182

What did the screen give for CG5002 [DRSC06911]?
droplet/nuclear area B-score, replicate 1: -0.134

With CG3436 [DRSC00605], what was measured?
droplet/nuclear area B-score, replicate 1: 1.87

For Ptth [DRSC00356], what does the deposit list?
droplet/nuclear area B-score, replicate 1: -1.16
